Data from PubChem BioAssay AID504467 (National Center for Advancing Translational Sciences (NCATS), 2011).
In all, about 330,000 compounds went through this assay and about 7,700 (2.3%) were called active. The inconclusive results got no clear call from the source; some entries with a clear call stand among them for comparison. Calls come from the whole dose curve; as a rule, active = well fitted inhibition curve with a large enough effect; inconclusive = small, poorly fitted or top-dose-only effect, or effect the other way; inactive = flat fitted curve, though single readings scatter. Potencies of inconclusive entries are doubtful fits and often do not repeat.

Test: qHTS screen for small molecules that inhibit ELG1-dependent DNA repair in human embryonic kidney (HEK293T) cells expressing luciferase-tagged ELG1; note: nearly all actives have a fitted effect of over 55% in size
Settings: HEK293T ELG1-luciferase reporter, luminescence, 16 h, DNA damage induced by 5-fluorouridine; series mostly up to 46.1 µM
In short: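 Luminescence from the luciferase reporter, measured 30 min after ONE-Glo reagent at room temperature, was the read-out. Beforehand, 2,000 cells per well were exposed for 16 hr at 37 °C to 5-fluorouridine together with compound or vehicle.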
Potency is the fitted concentration of half-maximal effect.

SMILES	Potency
CCC(=O)Nc1nnc(-c2ccc(OC)cc2)o1	inconclusive: 20.6 µM [activator, partial curve]
COc1cc(-c2nnc(NC(=O)c3ccco3)o2)cc(OC)c1OC	inconclusive: 4.61 µM [activator, single point]
CCOC(=O)C1=C(O)/C(=C/c2ccc(OCC(=O)O)c(OCC)c2)SC1=Nc1ccc(OC)cc1	inconclusive: 7.31 µM [inhibitor, partial curve]
Cc1ccc(OCCC(=O)N(CCC(C)C)c2c(N)n(Cc3ccccc3)c(=O)[nH]c2=O)cc1	inactive
Cc1cc(N/N=C/c2ccc(Cl)cc2Cl)nc(NCc2ccccc2)n1	inconclusive: 29.1 µM [inhibitor, single point]
CCN(CC)S(=O)(=O)c1cc(NC(=O)CSCc2c(C)noc2C)ccc1C	inconclusive: 16.4 µM [inhibitor, partial curve, poor fit]
O=[N+]([O-])c1ccc(-c2csc3[n+]2CCS3)cc1	inactive
COc1ccc(-c2cc3ccccc3cn2)cc1	inconclusive: 2.59 µM [activator, full curve]
CCN(Cc1ccccc1)S(=O)(=O)c1ccc(C(=O)N(CCCN(C)C)c2nc3cc(C)cc(C)c3s2)cc1	inconclusive: 29.1 µM [inhibitor, single point]
CCOC(=O)C(C)Sc1nnc(-c2ccccc2O)n1-c1ccc(C)cc1 (centres undefined)	inactive
CN(C(=O)COC(=O)c1cccnc1Nc1ccccc1F)C1CCS(=O)(=O)C1 (centres undefined)	inconclusive: 18.4 µM [activator, single point]
C[C@H]1CN([C@@H](C)CO)C(=O)c2cc(NC(=O)C3CCCCC3)ccc2O[C@H]1CN(C)CC1CCCCC1	inconclusive: 7.3 µM [inhibitor, partial curve]
C/C(=C\C(=S)Nc1ccccc1)Nc1ccccc1	inconclusive: 10.3 µM [activator, partial curve, poor fit]
c1ccc(CN2CCN(C3=Nc4cccc5cccc3c45)CC2)cc1	inconclusive: 18.4 µM [activator, partial curve]
CC1CCCCC1NC(=O)C1CCCN1S(=O)(=O)c1cccc2nsnc12 (centres undefined)	inconclusive: 23.1 µM [inhibitor, partial curve]
COc1ccc(-n2c(SCC(=O)Nc3sc4c(c3C#N)CCCC4)nnc2-c2ccc(O)cc2)cc1	active: 18.4 µM
CCC1(c2ccc(Cl)cc2)NC(=O)N(Cc2ccc(C(=O)OC)cc2)C1=O (centres undefined)	active: 20.6 µM
CCC(=O)N1CCN(c2ccc(NC(=O)c3ccco3)cc2Cl)CC1	inconclusive: 32.6 µM [inhibitor, single point]
Cc1ccc(-n2nc3c(c2NC(=O)C(C)(C)C)CSC3)c(C)c1	inactive
COc1cccc(-n2c(SCC(=O)NCCc3ccccc3)nnc2-c2ccoc2C)c1	inconclusive: 35.5 µM [inhibitor, single point]
Cc1cc(NC(=O)CSc2nc3ccccc3n2CCC#N)no1	inactive
CCCCCCCCNC(=O)c1cccnc1SCC(=O)Nc1ccc(OC)cc1OC	inconclusive: 32.6 µM [inhibitor, single point]
N#C/C(=C\c1ccccc1)C(=O)Nc1cccnc1	inactive

Grouped by structure: the entries above with two or more sulfur atoms
SMILES	Potency
CCN(CC)S(=O)(=O)c1cc(NC(=O)CSCc2c(C)noc2C)ccc1C	inconclusive: 16.4 µM [inhibitor, partial curve, poor fit]
O=[N+]([O-])c1ccc(-c2csc3[n+]2CCS3)cc1	inactive
CCN(Cc1ccccc1)S(=O)(=O)c1ccc(C(=O)N(CCCN(C)C)c2nc3cc(C)cc(C)c3s2)cc1	inconclusive: 29.1 µM [inhibitor, single point]
CC1CCCCC1NC(=O)C1CCCN1S(=O)(=O)c1cccc2nsnc12 (centres undefined)	inconclusive: 23.1 µM [inhibitor, partial curve]
COc1ccc(-n2c(SCC(=O)Nc3sc4c(c3C#N)CCCC4)nnc2-c2ccc(O)cc2)cc1	active: 18.4 µM

(list continues)

SMILES	Potency
Cc1ccc(C)c(OCC(O)CN2CCc3ccccc3C2)c1C (centres undefined)	inconclusive: 14.6 µM [inhibitor, partial curve]
Cc1ccc(NC(=O)CCn2cccc2)cc1Cl	inconclusive: 25.9 µM [activator, partial curve, poor fit]
CC(C)OC(=O)/C(=C\c1cccc2ccccc12)NC(=O)c1ccccc1	inconclusive: 32.6 µM [inhibitor, partial curve, poor fit]
COc1ccc(C2=NCC(CSc3nnnn3C)S2)cc1 (centres undefined)	inconclusive: 5.8 µM [activator, full curve, poor fit]
S=C(NCCc1ccc(Cl)cc1)NCc1ccco1	inactive
O=C(Nc1ccc2c(c1)nc1n2CCN(C2CCCCC2)C1)c1ccco1	inconclusive: 0.184 µM [activator, full curve, poor fit]
CN(C)/C=C(\C#N)S(=O)(=O)C(C)(C)C	inactive
COc1ccc2[nH]cc(CCNS(=O)(=O)c3ccc(C)cc3)c2c1	inconclusive: 23.1 µM [inhibitor, single point]
COc1ccccc1N1CCN(c2ccc(-c3ccccc3)nn2)CC1	inconclusive: 0.92 µM [activator, partial curve, poor fit]
CC(C)OC(=O)CNc1n[nH]c(=S)[nH]c1=O	inactive
Cc1ccc(Cn2c(=N)n(CC(O)c3ccco3)c3ccccc32)cc1 (centres undefined)	inconclusive: 16.4 µM [inhibitor, single point]
CC(C)(C)c1ccc(/C=C2/SC(N3CCCC3)=NC2=O)cc1	inactive
Cc1ccc(SCc2cc(=O)n3ccsc3n2)c(C)c1	inconclusive: 20.6 µM [activator, partial curve, poor fit]
COc1ccc(-c2nnc(SCC(=O)N3CCCCC3)o2)c(OC)c1	inconclusive: 5.17 µM [activator, single point]
CCC(=O)c1ccc(-c2ccccc2)cc1	inconclusive: 16.4 µM [activator, partial curve]
CCc1ccc([C@@H]2CC=C(C(=O)O)[C@H](c3cccc(Cl)c3)N2S(=O)(=O)c2ccc(C)cc2)cc1	inconclusive: 6.31 µM [activator, single point]
CCC(=O)c1ccc(OCC(=O)Nc2cccc(S(=O)(=O)N(C)c3ccccc3)c2)cc1	inconclusive: 18.3 µM [inhibitor, single point]
CSc1ncccc1C(=O)OCC(=O)Nc1ccc2c(c1)CCC2	inconclusive: 32.6 µM [activator, partial curve, poor fit]
O=C(CN1c2cccc3cccc(c23)S1(=O)=O)NCc1ccc2c(c1)OCO2	inconclusive: 18.4 µM [inhibitor, single point]
Cc1ccc2nc(CSc3nc(C)ccc3C#N)[nH]c2c1	inconclusive: 0.517 µM [activator, full curve]
O=C(Nc1ccc(F)cc1F)Nc1csc2ccccc12	inactive
COc1ccc(Nc2cc(C)c3ccccc3n2)cc1	inconclusive: 8.2 µM [activator, partial curve]
O=C(NC(=S)NC12CC3CC(CC(C3)C1)C2)c1ccc(F)cc1	inconclusive: 11.6 µM [activator, partial curve]

SMILES	Potency
Cc1ccn2c(NC(=O)c3ccccc3)c(-c3cccs3)nc2c1	inactive
CC(C)(CO)NCc1ccc(Br)cc1	inactive
COc1ccc(CN(C(=O)c2nsc(Cl)c2Cl)C(C(=O)NC2CCCC2)c2ccc(OC)cc2)cc1 (centres undefined)	inconclusive: 29.1 µM [inhibitor, single point]
CS(=O)(=O)N(Cc1ccccc1)c1ccc(C(=O)Nc2ccccc2C(=O)O)cc1	inactive
COc1ccc(C2(CNC(=O)c3cccc([N+](=O)[O-])c3)CCCCC2)cc1OC	inconclusive: 25.9 µM [inhibitor, single point]
COc1cc(C(=O)OCCNC(=O)c2ccccc2)cc(OC)c1OC	inconclusive: 23.1 µM [inhibitor, single point]
Cc1cc(C)nc(SCC(=O)N/N=C/c2cccn2-c2cccc(C(F)(F)F)c2)n1	inconclusive: 29.1 µM [inhibitor, single point]
CN(C)C(=O)CN(c1ccc(F)c(Cl)c1)S(C)(=O)=O	inconclusive: 29.1 µM [activator, single point]
CC(=O)Nc1ccc(/C(C)=N/Nc2nc(Nc3ccccc3)nc(N3CCOCC3)n2)cc1	active: 6.51 µM
Cc1ccccc1OCc1nc2c3cnn(C)c3ncn2n1	inconclusive: 14.6 µM [activator, partial curve]
CCOC(=O)C(NC(=O)c1ccc(OC)cc1)(OCC1(CC)COC1)C(F)(F)F (centres undefined)	inactive
CCCc1nnc(NC(=O)c2nc(S(=O)(=O)Cc3cccc(C)c3)ncc2Cl)s1	inconclusive: 29.1 µM [inhibitor, single point]
Cc1ccc(C)c(N(C(=O)c2snc(C(N)=O)c2N)C(C(=O)NCC2CCCO2)c2cccs2)c1 (centres undefined)	inactive
CN=Cc1nc(-c2ccccc2)oc1O	inconclusive: 10.3 µM [activator, partial curve]
CN(C)CCN1C(=O)C(=O)/C(=C(/O)c2ccc(F)cc2)C1c1ccccc1 (centres undefined)	inactive
CCOC(=O)[C@H]1[C@H]2COc3ccc(OC)cc3[C@@H]2N2C(=O)c3cc(F)c(F)cc3NC(=O)[C@@]12C	inactive
CCNC(=O)NC(=O)C(C)OC(=O)CCS(=O)(=O)c1ccc(C)cc1 (centres undefined)	inactive
CCC(=O)N/C(=N/c1nc(C)cc(C)n1)Nc1cccc(OC)c1	inconclusive: 29.1 µM [inhibitor, single point]
COC(=O)c1ccc(N=C2S/C(=C\c3cc(C)n(-c4cccnc4)c3C)C(=O)N2C)cc1	inconclusive: 25.9 µM [inhibitor, single point]
COCCNC(=O)c1onc(CSc2ccccc2)c1C(=O)NCCOC	inconclusive: 31.6 µM [activator, single point]
Oc1ccc(/C=N/NC(=S)N2CCOCC2)cc1	inactive
COc1ccccc1C(=O)N/N=C/c1ccc(Cl)s1	inconclusive: 16.4 µM [activator, partial curve]
N=c1c(C(=O)NCC2CCCO2)cc2c(=O)n3ccccc3nc2n1Cc1ccc(Cl)cc1 (centres undefined)	inconclusive: 18.3 µM [inhibitor, partial curve]
